This passage reports binding results from paper PMC6329817.

Amino acid sequences for entries named in this document (tags omitted). A change or cut given only in a name is not applied to a line headed by its entry.
UniProt F4IHY7: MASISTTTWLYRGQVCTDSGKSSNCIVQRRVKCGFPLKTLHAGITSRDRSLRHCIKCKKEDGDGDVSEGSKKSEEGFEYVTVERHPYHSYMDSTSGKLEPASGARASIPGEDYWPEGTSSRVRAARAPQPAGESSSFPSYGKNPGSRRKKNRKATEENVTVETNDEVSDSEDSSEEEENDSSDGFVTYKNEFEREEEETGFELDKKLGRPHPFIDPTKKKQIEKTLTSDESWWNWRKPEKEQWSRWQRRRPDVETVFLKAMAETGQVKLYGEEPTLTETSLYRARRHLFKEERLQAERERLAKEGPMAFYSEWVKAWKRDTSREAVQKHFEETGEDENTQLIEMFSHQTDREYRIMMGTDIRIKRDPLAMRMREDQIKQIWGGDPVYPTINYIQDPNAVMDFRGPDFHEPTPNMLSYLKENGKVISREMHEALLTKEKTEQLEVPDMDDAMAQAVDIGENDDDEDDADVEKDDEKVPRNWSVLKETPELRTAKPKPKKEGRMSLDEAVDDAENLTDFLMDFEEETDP

In the assay the target is GST-HMR (HEMERA, full-length coding sequence fused to glutathione S-transferase) (Arabidopsis) (UniProt F4IHY7). Nature of the assay: pull-down; GST or GST-HMR immobilised on glutathione Sepharose beads; in vitro-translated HA-tagged preys (TNT reticulocyte lysate) diluted in E buffer (50 mM Tris-Cl pH 7.5, 100 mM NaCl, 1 mM EDTA, 1 mM EGTA, 1% DMSO, 2 mM DTT) with 0.1% Nonidet P-40, 4 °C, 2 h; preys detected by anti-HA …; only the target purified.

Results are given in words; binding and its absence hold for the method and conditions named. In cells and extracts the contact can be indirect. Binding calls can cover weak binding; strength is not graded here. Tags and fused reporters may be left off the sequences shown.

B1: HA-PIF4N3 (N-terminal fragment of PIF4, amino acids 1-129) (domain or fragment, UniProt Q8W2F3 1-129)
chain: MEHQGWSFEENYSLSTNRRSIRPQDELVELLWRDGQVVLQSQTHREQTQTQKQDHHEEALRSSTFLEDQETVSWIQYPPDEDPFEPDDFSSHFFSTMDPLQRPTSETVKPKSSPEPPQVMVKPKACPDP
As to B1, the binding result is on record as “binds”.

B2: HA-PIF4C2 (PIF4 lacking the N-terminal amino acids 1-129) (domain or fragment, UniProt Q8W2F3 130-430)
chain: PPQVMPPPKFRLTNSSSGIRETEMEQYSVTTVGPSHCGSNPSQNDLDVSMSHDRSKNIEEKLNPNASSSSGGSSGCSFGKDIKEMASGRCITTDRKRKRINHTDESVSLSDAIGNKSNQRSGSNRRSRAAEVHNLSERRRRDRINERMKALQELIPHCSKTDKASILDEAIDYLKSLQLQLQVMWMGSGMAAAAASAPMMFPGVQPQQFIRQIQSPVQLPRFPVMDQSAIQNNPGLVCQNPVQNQIISDRFARYIGGFPHMQAATQMQPMEMLRFSSPAGQQSQQPSSVPTKTTDGSRLDH
On to B2, for which the binding entry is reported as “no binding”.
